Experiment [1] has as its target T1, SreA (iron responsive transcription factor) (A. fumigatus (endogenous in A. fumigatus mycelia)) (UniProt Q4WV91).
T1 sequence: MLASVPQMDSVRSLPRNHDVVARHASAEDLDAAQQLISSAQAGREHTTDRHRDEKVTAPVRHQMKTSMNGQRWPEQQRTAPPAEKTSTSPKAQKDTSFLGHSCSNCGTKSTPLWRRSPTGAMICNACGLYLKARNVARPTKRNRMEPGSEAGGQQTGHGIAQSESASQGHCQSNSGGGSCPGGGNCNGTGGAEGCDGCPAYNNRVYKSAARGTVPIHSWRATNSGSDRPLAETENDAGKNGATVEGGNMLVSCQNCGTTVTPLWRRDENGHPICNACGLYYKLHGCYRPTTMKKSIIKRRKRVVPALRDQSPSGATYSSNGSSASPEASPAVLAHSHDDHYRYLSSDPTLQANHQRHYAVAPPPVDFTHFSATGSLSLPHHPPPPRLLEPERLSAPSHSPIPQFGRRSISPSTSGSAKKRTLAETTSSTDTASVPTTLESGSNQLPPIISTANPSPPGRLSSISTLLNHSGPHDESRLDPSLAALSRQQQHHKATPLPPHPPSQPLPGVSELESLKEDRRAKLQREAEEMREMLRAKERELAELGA
As to the kind of experiment: co-IP; HapX or SreA precipitated from whole cell lysates of PxylP:grxD^venus or PxylP:grxD^venusΔtrx with rabbit α-HapX or α-SreA antiserum covalently linked to Protein-A-Sepharose (preserum as control); mycelia grown without iron (HapX) or with 0.03 mM iron (SreA); 3 h at 4°C; washes with 110, 500 and 750 mM KCl; Venus detected with mouse α-GFP.

Experiment [2] has as its target HapX (iron responsive transcription factor) (A. fumigatus (endogenous in A. fumigatus mycelia)) (UniProt Q4WER3). Described as above.
Experiment [3] has as its target GrxD (recombinant full-length GrxD after removal of the His-tag by TEV protease) (A. fumigatus) (UniProt Q4X024). Nature of the experiment: SEC; Ni-chelate eluate digested with TEV protease and loaded on Superdex 200 prep grade 26/60 in 25 mM HEPES pH 7.5, 150 mM NaCl, 2 mM glutathione; apparent masses from protein calibration standards; fractions checked by SDS-PAGE; both purified. In general terms: In gel filtration, larger molecules generally elute earlier.

Experiment [4] has as its target T2, GrxD^His6 (full-length A. fumigatus GrxD with a C-terminal His-tag) (A. fumigatus) (UniProt Q4X024).
T2 sequence: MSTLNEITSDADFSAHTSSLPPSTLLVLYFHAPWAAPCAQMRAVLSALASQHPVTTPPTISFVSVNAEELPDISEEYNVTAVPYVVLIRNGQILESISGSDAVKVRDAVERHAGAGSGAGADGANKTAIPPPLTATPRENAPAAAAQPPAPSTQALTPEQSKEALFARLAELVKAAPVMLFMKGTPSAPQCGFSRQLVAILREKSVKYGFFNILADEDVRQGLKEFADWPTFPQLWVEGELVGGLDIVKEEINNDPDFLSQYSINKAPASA
As to the kind of experiment: pull-down; GrxD-His6 enriched from E. coli crude cell extract on a Ni-Sepharose column, untagged HapX^161-491 co-expressed; 50 mM HEPES pH 8.0, 300 mM NaCl, 2 mM glutathione, 10 mM imidazole; elution with 500 mM imidazole.

Results are given in words; binding and its absence hold for the method and conditions named. For some of these results: Binding seen in cells or lysates may run through a third protein. Some binding calls cover weakened binding; strength is not graded here. Tags and fused reporters may be left off the sequences shown.

B1: GrxD^Venus (full-length A. fumigatus monothiol glutaredoxin GrxD, C-terminally tagged with Venus) (protein, UniProt Q4X024 1-271)
chain: MSTLNEITSDADFSAHTSSLPPSTLLVLYFHAPWAAPCAQMRAVLSALASQHPVTTPPTISFVSVNAEELPDISEEYNVTAVPYVVLIRNGQILESISGSDAVKVRDAVERHAGAGSGAGADGANKTAIPPPLTATPRENAPAAAAQPPAPSTQALTPEQSKEALFARLAELVKAAPVMLFMKGTPSAPQCGFSRQLVAILREKSVKYGFFNILADEDVRQGLKEFADWPTFPQLWVEGELVGGLDIVKEEINNDPDFLSQYSINKAPASA
Take B1: the binding result in experiment [1] and in experiment [2] was “binds” throughout.

B2: GrxD (recombinant full-length GrxD after removal of the His-tag by TEV protease) (protein, UniProt Q4X024 1-271)
chain: MSTLNEITSDADFSAHTSSLPPSTLLVLYFHAPWAAPCAQMRAVLSALASQHPVTTPPTISFVSVNAEELPDISEEYNVTAVPYVVLIRNGQILESISGSDAVKVRDAVERHAGAGSGAGADGANKTAIPPPLTATPRENAPAAAAQPPAPSTQALTPEQSKEALFARLAELVKAAPVMLFMKGTPSAPQCGFSRQLVAILREKSVKYGFFNILADEDVRQGLKEFADWPTFPQLWVEGELVGGLDIVKEEINNDPDFLSQYSINKAPASA
As for B2, in experiment [3], the binding result is on record as “no binding”.

B3: HapX^161-491 (A. fumigatus HapX C-terminus with all four cysteine-rich regions) (domain or fragment, UniProt Q4WER3 161-491, looked up)
chain: KGLAPLTTSTPQARSSDRPDNGDASNNDSGEGREEVPLGCNDCSTSHCQCIEDAFTMPGVVAQEQSRRLDTTKPGLSEPQIKPDPEEMEIDFTSRFAATQQQDQSPTSVSSPAVDPCGFCSDGTPCICAEMAAQEEQRPRRNSFENNRLAPIQNLSQFTPPPSDGDVRSDVTLPPISQATNPCANGPGTCAQCLADPRRTLFCKTLAASRSPSAAPSGCCGGKGADGGCCQSRNTNVSRGRSGSNNNTSSGSSAAPSLTLSCADAYTTLSRHPNFSRATDELSTWLPKLHTLPKPRDFPLTDRGVPRAALEVEAASVMGVLRYFDRRFADK
notes: HapX of Aspergillus fumigatus (Afu5g03920), amino acids 161-491 (cysteine-rich C-terminus), from a synthetic gene; also called AfuHapX^161-491; pnCS-HapX161-491; source: E. coli BL21(DE3), untagged, bicistronically co-expressed with GrxD-His6; in crude cell extract, then co-purified (Ni-Sepharose, SEC)
B3: the binding result in experiment [4] was “binds”.
